log2 fold change data for 17 targets are collected here from the supplement of paper PMC10849652.

The chains behind the UniProt entries cited, without tags or fusion partners. Where a name states a change or a piece, a line headed by the entry shows the natural chain unless it says otherwise.
UniProt Q9BVG8: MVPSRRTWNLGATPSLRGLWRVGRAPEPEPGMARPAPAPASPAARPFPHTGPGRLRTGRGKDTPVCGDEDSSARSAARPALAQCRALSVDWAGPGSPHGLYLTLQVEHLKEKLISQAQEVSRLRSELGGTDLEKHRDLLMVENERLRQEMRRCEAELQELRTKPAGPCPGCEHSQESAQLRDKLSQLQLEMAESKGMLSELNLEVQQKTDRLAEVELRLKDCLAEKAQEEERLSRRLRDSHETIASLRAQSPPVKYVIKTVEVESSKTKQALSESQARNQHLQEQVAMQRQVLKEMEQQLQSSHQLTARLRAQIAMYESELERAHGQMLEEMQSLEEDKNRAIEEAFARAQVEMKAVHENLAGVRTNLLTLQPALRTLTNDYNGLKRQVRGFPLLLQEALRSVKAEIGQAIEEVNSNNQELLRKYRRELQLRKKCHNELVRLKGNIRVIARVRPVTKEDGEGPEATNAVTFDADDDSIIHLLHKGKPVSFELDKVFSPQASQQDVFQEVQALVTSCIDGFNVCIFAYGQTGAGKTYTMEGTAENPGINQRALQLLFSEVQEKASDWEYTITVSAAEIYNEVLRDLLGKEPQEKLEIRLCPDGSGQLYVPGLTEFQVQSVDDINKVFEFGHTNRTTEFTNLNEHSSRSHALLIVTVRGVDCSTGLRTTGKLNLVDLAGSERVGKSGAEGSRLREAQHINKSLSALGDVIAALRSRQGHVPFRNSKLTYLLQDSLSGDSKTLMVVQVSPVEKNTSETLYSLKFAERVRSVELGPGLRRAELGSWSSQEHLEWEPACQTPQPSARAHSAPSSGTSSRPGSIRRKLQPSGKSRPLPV
UniProt O43731: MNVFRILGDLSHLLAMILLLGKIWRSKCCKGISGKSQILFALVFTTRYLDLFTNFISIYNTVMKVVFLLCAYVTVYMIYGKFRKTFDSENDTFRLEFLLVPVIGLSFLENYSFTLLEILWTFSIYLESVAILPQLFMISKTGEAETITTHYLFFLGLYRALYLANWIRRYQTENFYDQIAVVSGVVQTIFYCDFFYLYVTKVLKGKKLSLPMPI
UniProt Q13351: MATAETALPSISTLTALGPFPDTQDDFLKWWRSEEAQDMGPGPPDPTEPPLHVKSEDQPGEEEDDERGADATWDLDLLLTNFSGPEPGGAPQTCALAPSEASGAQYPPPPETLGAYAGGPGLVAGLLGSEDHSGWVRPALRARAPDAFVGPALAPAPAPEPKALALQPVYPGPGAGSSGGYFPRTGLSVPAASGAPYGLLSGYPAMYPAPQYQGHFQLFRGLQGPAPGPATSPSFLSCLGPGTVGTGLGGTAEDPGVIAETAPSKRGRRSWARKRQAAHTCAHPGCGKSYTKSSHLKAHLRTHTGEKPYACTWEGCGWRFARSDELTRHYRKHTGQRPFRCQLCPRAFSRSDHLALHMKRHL
UniProt Q969F8, whole entry, looked up: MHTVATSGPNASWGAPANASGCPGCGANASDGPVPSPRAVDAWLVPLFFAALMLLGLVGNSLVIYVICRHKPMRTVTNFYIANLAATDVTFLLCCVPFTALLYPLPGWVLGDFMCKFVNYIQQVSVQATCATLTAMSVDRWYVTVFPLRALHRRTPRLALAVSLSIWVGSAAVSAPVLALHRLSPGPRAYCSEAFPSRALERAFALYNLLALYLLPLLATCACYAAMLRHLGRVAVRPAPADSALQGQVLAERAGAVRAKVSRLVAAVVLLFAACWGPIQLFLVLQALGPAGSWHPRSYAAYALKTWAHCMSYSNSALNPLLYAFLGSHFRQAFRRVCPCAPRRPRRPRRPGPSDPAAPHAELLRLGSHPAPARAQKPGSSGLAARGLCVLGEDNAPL
UniProt P05412, whole entry, looked up: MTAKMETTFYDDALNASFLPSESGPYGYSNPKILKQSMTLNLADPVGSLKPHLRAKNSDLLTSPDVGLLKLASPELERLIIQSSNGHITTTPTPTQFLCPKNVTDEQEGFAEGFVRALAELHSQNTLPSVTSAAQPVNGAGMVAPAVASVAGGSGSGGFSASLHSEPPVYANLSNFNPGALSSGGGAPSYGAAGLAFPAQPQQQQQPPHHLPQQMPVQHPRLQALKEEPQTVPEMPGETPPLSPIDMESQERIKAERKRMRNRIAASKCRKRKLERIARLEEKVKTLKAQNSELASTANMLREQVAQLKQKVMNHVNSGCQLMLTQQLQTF
UniProt O00180: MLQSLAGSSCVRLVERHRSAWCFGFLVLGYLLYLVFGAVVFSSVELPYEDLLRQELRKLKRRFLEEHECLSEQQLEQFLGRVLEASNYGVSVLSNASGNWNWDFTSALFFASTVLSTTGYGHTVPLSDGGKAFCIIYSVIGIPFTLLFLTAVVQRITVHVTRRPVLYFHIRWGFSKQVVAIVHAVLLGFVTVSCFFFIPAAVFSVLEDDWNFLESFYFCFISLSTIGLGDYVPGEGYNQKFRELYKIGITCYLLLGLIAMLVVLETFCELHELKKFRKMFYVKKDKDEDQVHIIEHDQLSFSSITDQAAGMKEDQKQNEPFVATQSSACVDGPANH
UniProt Q9H910: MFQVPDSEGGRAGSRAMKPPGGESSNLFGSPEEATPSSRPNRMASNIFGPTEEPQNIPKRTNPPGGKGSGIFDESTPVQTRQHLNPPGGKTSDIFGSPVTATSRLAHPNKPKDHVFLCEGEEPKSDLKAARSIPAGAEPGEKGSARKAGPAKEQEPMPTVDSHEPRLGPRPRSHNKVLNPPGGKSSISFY
UniProt O43896: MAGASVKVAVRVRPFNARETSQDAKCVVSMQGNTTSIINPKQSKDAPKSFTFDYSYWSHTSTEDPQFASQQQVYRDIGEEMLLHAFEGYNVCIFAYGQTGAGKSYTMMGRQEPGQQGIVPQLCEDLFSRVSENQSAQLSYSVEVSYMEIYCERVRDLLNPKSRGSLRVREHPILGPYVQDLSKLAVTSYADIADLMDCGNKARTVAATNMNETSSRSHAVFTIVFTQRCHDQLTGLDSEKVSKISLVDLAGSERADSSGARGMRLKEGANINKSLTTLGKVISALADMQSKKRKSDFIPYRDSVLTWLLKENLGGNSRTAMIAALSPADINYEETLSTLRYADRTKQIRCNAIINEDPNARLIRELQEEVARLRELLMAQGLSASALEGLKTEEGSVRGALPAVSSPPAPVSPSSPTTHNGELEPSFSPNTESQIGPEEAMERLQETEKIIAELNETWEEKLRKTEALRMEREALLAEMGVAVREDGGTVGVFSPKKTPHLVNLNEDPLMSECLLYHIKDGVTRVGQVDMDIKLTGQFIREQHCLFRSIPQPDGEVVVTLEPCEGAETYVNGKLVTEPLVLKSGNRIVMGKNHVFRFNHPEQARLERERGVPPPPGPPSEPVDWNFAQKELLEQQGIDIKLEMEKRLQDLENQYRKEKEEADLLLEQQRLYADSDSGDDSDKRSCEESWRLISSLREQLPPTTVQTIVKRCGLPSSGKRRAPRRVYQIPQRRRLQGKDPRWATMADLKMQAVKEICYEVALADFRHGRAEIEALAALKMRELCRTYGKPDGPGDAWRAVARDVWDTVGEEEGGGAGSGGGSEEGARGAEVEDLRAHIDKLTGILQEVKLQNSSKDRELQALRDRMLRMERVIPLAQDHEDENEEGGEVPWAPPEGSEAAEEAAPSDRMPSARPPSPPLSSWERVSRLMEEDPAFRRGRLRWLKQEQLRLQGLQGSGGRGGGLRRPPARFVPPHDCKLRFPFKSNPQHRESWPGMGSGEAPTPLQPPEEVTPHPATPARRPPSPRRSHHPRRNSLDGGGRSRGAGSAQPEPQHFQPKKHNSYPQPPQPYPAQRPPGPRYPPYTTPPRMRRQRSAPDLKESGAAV
UniProt O95279: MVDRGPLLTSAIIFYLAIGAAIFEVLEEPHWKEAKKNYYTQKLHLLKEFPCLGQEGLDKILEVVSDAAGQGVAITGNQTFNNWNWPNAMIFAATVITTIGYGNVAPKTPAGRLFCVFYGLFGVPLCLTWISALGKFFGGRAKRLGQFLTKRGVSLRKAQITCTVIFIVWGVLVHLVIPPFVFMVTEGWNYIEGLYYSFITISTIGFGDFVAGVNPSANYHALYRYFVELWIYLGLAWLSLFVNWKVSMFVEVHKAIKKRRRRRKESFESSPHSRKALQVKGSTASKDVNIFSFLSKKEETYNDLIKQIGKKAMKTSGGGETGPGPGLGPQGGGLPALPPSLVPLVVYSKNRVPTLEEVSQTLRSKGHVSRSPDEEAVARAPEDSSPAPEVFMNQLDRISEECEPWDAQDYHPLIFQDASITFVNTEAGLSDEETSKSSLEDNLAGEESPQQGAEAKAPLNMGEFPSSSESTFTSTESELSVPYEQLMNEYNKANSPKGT
UniProt Q8NB78: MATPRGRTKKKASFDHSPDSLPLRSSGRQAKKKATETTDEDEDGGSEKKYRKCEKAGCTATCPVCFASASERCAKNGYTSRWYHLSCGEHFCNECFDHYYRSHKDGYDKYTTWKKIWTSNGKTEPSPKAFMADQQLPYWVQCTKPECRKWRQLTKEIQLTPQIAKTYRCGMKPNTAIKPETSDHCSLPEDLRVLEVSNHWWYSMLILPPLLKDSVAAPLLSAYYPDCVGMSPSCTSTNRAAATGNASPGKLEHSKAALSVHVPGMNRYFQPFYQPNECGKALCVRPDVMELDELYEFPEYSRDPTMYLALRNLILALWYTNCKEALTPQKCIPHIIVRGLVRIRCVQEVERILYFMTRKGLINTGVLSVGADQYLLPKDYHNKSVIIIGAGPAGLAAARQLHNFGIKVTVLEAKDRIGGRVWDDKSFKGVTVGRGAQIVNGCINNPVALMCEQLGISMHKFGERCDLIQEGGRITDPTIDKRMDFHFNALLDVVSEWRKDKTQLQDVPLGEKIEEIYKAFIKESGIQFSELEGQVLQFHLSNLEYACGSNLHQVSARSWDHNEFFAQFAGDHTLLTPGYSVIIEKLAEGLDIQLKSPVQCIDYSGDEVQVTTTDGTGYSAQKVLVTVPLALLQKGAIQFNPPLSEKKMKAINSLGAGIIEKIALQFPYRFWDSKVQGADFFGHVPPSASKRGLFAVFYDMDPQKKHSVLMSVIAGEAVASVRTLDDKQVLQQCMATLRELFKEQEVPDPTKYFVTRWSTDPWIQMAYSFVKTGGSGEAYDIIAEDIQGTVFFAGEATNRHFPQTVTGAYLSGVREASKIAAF
UniProt Q9BXK1: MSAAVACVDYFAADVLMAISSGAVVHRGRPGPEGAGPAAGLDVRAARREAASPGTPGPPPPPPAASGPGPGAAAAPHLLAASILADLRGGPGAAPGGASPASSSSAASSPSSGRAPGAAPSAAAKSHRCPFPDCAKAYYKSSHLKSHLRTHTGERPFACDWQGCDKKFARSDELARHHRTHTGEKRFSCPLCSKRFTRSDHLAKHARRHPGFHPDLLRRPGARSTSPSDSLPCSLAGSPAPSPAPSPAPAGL
UniProt P24390: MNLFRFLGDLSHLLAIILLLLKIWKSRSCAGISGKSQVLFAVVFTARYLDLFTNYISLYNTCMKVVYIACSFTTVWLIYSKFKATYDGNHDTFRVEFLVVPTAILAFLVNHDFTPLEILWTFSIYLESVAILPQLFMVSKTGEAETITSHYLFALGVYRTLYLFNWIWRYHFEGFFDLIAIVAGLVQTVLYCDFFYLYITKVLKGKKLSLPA
UniProt O95251, whole entry, looked up: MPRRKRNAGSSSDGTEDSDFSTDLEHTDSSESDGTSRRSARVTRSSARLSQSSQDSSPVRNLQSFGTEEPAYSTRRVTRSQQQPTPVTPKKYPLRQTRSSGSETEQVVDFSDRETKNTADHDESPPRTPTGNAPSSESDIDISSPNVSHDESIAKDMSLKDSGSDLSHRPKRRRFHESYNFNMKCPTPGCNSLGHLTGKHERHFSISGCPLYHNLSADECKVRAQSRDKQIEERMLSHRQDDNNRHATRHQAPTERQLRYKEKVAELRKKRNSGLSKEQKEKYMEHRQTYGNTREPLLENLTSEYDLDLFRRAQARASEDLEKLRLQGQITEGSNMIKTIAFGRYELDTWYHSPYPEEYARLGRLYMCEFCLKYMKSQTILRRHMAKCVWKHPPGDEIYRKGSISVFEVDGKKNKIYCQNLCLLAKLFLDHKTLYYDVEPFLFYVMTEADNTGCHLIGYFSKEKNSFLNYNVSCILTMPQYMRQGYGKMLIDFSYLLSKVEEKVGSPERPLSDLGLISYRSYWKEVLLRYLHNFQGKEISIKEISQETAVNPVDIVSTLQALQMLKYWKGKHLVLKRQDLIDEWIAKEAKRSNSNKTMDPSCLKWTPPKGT

Some of the results follow.

Compound in the assay: C1=CC=C(C=C1)[C@H](COC2=CC3=C(C=C2)NC(=O)N3)NC(=O)C4=CC=CN(C4=O)CC5=CC(=C(C=C5)F)F
Description: log2 fold change, soluble protein after heating vs DMSO (PISA); higher = thermal stabilisation; K562 cells, 10 uM, 30 min; active = over 0.2 and 3.5 SD of the protein, either way, in both replicates (recomputed). The procedure, abridged:
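K562 cells at 2×10^6 cells/mL were treated with 10 μM compound for 30 min. Aliquots were heated for 3 min across 48°C-58°C, pooled, and extracted in PBS with 0.5% NP-40 at 4°C; soluble protein was the supernatant after 21,000xg for 90 min. Soluble protein was quantified by TMTpro 16plex LC-MS/MS with channel sums equalised, and reported as log2 fold change in thermal stability against DMSO controls, with values from duplicates.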
Regarding KLHL7 isoform 3 (UniProt Q8IXQ5), the log2 fold change was inactive: 0.173.

As to KIFC3 isoform 6 (UniProt Q9BVG8), the log2 fold change was inactive: -0.079.

In the case of KIDINS220 isoform 2 (UniProt Q9ULH0), the log2 fold change is inactive: 0.057.

KDELR3 (UniProt O43731): the log2 fold change is inactive: 0.095.

Take KALRN (UniProt O60229): the log2 fold change was inactive: 0.063.

Take KLF1 (UniProt Q13351): the log2 fold change is inactive: 0.171.

In the case of KISS1R (UniProt Q969F8), the log2 fold change is inactive: 0.016.

Regarding JUN (UniProt P05412), the log2 fold change is inactive: 0.078.

In the case of KCNK1 (UniProt O00180), the log2 fold change was inactive: -0.02.

Turning to KAT6B (UniProt Q8WYB5), the log2 fold change is inactive: -0.091.

Turning to JPT2 isoform 2 (UniProt Q9H910), the log2 fold change is inactive: 0.022.

For the target KIF1C (UniProt O43896), the log2 fold change is inactive: -0.055.

On to KCNK5 (UniProt O95279), for which the log2 fold change is inactive: -0.028.

Take KDM1B (UniProt Q8NB78): the log2 fold change is inactive: 0.028.

As to KLF16 (UniProt Q9BXK1), the log2 fold change was inactive: -0.167.

Consider KDELR1 (UniProt P24390), for which the log2 fold change was inactive: 0.069.

With KAT7 (UniProt O95251), the log2 fold change was inactive: 0.129.
